No constants are given. Whether binding was seen depends on the method and setting. In cells and extracts the contact can be indirect. Some binding calls cover weakened binding; strength is not graded here.

By UniProt entry, the sequences of proteins in these tests, tags left out.
UniProt P48431: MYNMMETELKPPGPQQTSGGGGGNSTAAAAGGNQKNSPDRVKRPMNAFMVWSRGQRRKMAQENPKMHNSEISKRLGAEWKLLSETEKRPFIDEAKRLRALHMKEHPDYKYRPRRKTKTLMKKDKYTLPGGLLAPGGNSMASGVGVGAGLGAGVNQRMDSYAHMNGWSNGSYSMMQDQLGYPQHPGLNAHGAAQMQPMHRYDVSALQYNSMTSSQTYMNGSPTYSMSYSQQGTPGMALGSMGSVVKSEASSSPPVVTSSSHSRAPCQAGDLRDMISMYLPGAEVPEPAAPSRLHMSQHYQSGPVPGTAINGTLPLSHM
UniProt Q86UP3: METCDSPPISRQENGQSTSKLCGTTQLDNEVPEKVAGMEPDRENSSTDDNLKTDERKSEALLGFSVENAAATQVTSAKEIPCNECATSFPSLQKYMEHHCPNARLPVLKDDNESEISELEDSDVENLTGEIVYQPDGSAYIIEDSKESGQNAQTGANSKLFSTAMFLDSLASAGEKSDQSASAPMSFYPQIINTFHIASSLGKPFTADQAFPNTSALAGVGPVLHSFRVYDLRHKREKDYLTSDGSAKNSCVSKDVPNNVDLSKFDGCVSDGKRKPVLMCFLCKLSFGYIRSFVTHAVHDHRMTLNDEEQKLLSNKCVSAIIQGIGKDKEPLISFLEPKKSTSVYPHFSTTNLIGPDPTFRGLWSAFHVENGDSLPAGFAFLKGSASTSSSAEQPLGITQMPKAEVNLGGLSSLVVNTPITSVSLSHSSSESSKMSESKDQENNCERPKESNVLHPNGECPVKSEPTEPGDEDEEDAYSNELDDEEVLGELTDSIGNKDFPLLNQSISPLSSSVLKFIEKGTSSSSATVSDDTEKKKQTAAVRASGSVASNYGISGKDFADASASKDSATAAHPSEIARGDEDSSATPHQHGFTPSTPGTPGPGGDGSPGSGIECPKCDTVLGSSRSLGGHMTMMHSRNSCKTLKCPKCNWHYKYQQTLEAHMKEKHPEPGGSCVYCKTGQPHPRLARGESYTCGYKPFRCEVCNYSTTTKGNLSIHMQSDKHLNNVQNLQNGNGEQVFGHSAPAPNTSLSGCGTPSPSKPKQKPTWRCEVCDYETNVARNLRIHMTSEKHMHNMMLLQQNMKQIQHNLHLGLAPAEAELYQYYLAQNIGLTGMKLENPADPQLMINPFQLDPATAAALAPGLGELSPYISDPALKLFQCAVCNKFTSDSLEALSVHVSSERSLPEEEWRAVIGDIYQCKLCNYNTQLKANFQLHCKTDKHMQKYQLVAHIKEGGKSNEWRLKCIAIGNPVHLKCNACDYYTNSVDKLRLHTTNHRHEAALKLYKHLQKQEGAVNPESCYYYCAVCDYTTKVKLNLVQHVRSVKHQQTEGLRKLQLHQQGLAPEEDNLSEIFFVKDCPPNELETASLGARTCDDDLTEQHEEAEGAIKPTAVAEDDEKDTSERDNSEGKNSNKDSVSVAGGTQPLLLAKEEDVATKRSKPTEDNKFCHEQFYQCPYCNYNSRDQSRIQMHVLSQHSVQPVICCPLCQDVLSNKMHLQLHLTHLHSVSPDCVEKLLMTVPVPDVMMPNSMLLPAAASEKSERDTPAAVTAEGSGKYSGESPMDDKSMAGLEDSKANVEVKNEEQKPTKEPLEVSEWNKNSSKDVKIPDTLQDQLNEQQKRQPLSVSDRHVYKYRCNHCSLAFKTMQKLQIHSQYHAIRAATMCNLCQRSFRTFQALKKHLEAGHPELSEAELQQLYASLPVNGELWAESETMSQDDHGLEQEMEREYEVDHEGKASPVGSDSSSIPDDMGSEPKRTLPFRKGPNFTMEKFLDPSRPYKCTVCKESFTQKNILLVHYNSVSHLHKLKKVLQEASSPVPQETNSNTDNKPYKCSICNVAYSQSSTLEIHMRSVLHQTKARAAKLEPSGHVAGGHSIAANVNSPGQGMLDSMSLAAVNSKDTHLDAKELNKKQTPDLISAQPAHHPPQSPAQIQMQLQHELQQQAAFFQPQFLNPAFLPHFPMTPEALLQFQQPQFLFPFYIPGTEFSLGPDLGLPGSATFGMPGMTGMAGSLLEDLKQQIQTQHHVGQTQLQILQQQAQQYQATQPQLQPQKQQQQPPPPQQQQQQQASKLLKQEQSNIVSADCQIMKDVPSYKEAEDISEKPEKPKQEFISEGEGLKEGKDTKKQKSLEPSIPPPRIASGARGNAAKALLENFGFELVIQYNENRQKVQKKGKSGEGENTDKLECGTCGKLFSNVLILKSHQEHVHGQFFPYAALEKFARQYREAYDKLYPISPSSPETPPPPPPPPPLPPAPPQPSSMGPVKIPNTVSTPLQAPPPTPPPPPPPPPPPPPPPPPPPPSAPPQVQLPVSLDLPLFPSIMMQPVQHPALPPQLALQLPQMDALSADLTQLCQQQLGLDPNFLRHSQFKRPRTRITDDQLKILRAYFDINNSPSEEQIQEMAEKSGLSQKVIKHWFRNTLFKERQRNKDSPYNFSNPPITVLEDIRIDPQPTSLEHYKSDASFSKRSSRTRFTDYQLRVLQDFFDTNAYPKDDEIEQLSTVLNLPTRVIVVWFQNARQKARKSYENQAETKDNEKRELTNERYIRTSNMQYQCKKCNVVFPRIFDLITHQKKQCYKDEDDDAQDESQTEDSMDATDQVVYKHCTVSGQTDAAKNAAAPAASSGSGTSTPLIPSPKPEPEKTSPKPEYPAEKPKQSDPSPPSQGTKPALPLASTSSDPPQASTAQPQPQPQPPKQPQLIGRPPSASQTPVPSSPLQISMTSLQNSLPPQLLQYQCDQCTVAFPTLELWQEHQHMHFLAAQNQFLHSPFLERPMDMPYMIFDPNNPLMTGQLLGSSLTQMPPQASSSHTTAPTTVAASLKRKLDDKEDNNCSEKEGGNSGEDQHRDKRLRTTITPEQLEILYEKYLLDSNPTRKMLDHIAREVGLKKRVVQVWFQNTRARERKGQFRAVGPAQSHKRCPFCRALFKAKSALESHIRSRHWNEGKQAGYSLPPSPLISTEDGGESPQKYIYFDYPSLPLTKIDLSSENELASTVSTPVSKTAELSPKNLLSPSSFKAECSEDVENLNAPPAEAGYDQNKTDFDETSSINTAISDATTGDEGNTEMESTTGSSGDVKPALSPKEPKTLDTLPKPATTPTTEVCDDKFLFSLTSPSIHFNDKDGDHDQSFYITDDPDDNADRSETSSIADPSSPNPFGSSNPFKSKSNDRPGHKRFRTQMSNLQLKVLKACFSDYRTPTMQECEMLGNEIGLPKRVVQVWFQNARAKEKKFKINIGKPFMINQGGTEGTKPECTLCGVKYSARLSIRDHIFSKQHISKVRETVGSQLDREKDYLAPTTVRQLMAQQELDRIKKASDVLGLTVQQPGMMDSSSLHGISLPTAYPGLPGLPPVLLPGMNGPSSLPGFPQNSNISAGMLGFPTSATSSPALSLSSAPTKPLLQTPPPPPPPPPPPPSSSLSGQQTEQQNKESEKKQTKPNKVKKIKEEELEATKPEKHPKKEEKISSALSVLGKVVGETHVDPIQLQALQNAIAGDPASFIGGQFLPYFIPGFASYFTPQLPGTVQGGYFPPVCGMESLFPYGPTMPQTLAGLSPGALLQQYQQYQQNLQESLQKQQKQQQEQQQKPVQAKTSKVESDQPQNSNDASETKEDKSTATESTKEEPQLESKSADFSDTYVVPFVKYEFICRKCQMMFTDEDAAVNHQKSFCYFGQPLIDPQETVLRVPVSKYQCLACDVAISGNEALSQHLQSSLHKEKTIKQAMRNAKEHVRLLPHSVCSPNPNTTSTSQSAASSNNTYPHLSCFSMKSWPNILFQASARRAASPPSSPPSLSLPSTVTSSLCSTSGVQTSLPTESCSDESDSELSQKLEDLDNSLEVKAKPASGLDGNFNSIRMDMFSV

The target in the assay is SRY-Box Transcription Factor 2 (human (in glioma cell lines)) (UniProt P48431). Briefly: co-IP; glioma cell lysate (RIPA Lysis Buffer) incubated with anti-SOX2 antibody overnight at 4 °C, protein A/G-agarose beads 2 hours at 4 °C, washed three times with lysis buffer, Western blotting. (In general: In western blotting, separated proteins are transferred to a membrane and probed.)

With “Zinc Finger Homeobox 4 (from UniProt Q86UP3 1-3567)”, the binding result is on record as “binds”.

These data come from PMC12741749.
